Among the data in publication PMC6418270, “The pharmacological and functional characterization of the serotonergic system in Anopheles gambiae and Aedes aegypti: influences on flight and blood-feeding behavior” (Scientific Reports, 2019) are IC50 values, retold here.

Sequences of proteins named here, by UniProt entry; tags and fusion partners are left off.
UniProt A0A1S4GEY1, entry or part of it: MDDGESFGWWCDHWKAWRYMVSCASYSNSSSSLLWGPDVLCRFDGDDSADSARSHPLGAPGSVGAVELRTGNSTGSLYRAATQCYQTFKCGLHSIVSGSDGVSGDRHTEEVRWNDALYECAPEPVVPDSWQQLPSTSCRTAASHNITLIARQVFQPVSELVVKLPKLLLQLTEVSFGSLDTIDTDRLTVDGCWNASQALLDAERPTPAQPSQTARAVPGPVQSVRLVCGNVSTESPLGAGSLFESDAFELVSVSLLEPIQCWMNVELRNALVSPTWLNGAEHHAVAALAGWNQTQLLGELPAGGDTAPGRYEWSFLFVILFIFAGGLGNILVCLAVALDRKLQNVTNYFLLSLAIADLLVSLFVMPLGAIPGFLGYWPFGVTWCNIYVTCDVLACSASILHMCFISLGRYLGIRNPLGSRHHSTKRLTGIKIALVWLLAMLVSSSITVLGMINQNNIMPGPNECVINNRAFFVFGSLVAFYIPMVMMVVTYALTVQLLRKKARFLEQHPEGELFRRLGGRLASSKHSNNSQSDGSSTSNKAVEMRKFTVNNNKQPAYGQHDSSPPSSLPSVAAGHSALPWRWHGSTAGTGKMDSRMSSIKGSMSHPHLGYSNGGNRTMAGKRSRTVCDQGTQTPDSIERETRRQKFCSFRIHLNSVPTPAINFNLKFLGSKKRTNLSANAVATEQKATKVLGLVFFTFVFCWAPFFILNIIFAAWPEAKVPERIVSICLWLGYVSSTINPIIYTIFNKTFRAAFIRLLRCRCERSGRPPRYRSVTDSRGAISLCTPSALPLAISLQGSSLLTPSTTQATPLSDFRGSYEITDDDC
UniProt A7UR33, entry or part of it: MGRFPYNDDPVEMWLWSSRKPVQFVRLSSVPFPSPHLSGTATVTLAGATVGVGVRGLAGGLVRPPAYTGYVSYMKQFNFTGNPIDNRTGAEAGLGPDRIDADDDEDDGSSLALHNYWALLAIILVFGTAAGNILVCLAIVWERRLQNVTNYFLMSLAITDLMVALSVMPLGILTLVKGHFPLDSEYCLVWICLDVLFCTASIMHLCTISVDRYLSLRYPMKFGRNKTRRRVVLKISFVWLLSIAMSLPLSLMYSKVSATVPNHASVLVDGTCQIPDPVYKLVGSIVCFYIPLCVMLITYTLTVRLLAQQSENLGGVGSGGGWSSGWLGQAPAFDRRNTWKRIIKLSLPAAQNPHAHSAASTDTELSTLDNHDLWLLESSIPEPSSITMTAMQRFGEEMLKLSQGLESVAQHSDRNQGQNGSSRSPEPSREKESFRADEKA

Counter-ions that a name gives are not always drawn.

For one test, the target named is AGAP002232 (Anopheles gambiae, UniProt A0A1S4GEY1). The test can be described thus: Fluo-4 calcium assay in CRE-luc2P HEK-293 cells expressing AGAP002232. The format is cell-based. The method, then: The GloResponse™ CRE-luc2P human embryonic kidney (HEK-293) reporter cells were incubated at 37 °C with an atmosphere of 5% CO2, and maintained in Dulbecco’s Modified Eagle Medium (DMEM) supplemented with 10% fetal bovine serum (FBS) and […] hygromycin B. Transfection of the HEK-293 cells with 1 μg of plasmid DNA was performed with Amaxa Nucleofector™ technology (Lonza, Basel, Switzerland) as per manufacturer’s instructions. A week post-transfection, selective pressure was applied with […] of G418 antibiotic to generate stable lines.
1 × 10^6 cells per well were seeded into a 96-well black all-clear bottom plate and incubated overnight in 10% FBS/90% DMEM at 37 °C with an atmosphere of 5% CO2. […] Fluorescence levels were determined with a FlexStation3 microplate reader, with excitation and emission wavelengths set to 485 and 525 nm, respectively (Molecular Devices LLC). Basal fluorescence levels were measured for 17 seconds, at which time, 25 μl of the agonist compound was added. Fluorescence measurements continued to be recorded for a total of 120 seconds at 2-second intervals. When testing antagonists, cells were treated with the compound prior to determination of fluorescence levels.
Luminescence and calcium assay data were normalized and fitted with a non-linear least squares regression to generate dose-response curves, EC50 and IC50 values. […]

In the next test the target is AGAP002229 (Anopheles gambiae, UniProt A7UR33). Description: Fluo-4 calcium assay in CRE-luc2P HEK-293 cells expressing AGAP002229. The format is cell-based. How it is done: A week post-transfection, selective pressure was applied with […] of G418 antibiotic to generate stable lines.
1 × 10^6 cells per well were seeded into a 96-well black all-clear bottom plate and incubated overnight in 10% FBS/90% DMEM at 37 °C with an atmosphere of 5% CO2. The following day, 2X Fluo-4 Direct calcium dye (Molecular Devices LLC, San Jose, CA) was added to each well and incubated in the same conditions for 45 minutes before the assay was completed. At this time, serial dilutions of the test compounds were prepared in a 96-well clear flat bottom plate. […] Fluorescence measurements continued to be recorded for a total of 120 seconds at 2-second intervals. When testing antagonists, cells were treated with the compound prior to determination of fluorescence levels.
Luminescence and calcium assay data were normalized and fitted with a non-linear least squares regression to generate dose-response curves, EC50 and IC50 values. Unpaired t-tests or Dunnett’s multiple comparisons test were performed accordingly to compare EC50 or IC50 values. Locomotion was measured based on the distance required for flight recovery. […] In the blood-feeding experiments, the percentage of blood-fed mosquitoes was calculated for each treatment group. […] Size of bloodmeals were compared with an unpaired t-test or Mann-Whitney test after normality was evaluated with the Kolmogorov-Smirnov test. […]

Turning to `CN1CCC(=C2c3ccccc3C=Cc3ccccc32)CC1` [cyproheptadine, cyproheptadine hydrochloride sesquihydrate], the concentration for half-maximal inhibition (IC50) (as a rule, the midpoint of a concentration-inhibition curve) turned out to be 5290 nM at AGAP002232 and 130 nM at AGAP002229.
